Experimental data taken from the supplement of paper PMC10849652.
This is one part of the list.

Amino acid sequences for entries named in this document (tags omitted). A change or cut given only in a name is not applied to a line headed by its entry.
UniProt Q9BUT1: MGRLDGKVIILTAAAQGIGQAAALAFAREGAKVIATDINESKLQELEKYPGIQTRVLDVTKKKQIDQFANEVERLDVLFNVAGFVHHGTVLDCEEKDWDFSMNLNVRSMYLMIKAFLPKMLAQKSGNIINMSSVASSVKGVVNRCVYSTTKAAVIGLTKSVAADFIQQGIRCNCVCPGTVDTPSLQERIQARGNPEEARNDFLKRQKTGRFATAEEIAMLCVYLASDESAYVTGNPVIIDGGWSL
UniProt Q92994: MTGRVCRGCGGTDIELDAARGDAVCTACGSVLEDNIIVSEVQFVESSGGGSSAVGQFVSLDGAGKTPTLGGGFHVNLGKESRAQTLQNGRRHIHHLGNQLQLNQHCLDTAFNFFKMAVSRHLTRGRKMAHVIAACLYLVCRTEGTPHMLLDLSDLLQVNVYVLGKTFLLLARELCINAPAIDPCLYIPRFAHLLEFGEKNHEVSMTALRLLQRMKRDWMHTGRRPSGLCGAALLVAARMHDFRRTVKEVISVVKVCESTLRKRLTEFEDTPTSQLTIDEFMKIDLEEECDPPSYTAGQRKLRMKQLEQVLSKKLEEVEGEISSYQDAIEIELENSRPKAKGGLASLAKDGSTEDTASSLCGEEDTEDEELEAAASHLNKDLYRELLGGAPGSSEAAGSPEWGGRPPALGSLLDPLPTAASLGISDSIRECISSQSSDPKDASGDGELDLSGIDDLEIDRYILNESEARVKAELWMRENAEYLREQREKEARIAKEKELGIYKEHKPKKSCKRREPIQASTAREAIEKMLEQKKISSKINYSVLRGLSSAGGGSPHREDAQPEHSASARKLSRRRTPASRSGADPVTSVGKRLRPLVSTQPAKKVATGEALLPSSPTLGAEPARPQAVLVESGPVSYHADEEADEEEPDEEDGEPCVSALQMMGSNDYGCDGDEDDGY
UniProt Q9HCU9: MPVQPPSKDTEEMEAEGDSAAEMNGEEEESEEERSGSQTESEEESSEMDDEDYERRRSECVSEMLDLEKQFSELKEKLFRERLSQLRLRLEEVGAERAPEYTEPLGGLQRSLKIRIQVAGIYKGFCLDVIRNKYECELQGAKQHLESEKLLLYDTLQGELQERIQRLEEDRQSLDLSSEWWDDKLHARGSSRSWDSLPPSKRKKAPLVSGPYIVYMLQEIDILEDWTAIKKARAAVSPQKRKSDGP
UniProt Q8IXM2, whole entry, looked up: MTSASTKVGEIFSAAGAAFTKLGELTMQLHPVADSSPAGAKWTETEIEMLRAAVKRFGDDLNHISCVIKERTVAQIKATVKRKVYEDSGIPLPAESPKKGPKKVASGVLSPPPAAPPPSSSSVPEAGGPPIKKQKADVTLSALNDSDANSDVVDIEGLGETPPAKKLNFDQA
UniProt O75363: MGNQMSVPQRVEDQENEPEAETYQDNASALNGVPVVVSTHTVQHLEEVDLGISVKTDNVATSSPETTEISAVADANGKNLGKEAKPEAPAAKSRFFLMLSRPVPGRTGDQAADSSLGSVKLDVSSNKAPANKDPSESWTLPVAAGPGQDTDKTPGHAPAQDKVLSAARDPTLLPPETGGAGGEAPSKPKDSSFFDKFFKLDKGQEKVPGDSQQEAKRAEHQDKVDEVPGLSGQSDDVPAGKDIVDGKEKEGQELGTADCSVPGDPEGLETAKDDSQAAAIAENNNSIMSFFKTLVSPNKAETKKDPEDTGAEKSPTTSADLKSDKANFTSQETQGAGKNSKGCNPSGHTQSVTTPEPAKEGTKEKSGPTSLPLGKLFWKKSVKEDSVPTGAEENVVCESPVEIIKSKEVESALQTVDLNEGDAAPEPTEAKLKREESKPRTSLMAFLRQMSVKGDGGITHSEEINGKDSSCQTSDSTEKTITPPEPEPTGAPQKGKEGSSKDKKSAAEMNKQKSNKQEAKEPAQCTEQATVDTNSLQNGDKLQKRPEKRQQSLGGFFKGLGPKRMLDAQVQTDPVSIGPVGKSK
UniProt Q8IWZ6: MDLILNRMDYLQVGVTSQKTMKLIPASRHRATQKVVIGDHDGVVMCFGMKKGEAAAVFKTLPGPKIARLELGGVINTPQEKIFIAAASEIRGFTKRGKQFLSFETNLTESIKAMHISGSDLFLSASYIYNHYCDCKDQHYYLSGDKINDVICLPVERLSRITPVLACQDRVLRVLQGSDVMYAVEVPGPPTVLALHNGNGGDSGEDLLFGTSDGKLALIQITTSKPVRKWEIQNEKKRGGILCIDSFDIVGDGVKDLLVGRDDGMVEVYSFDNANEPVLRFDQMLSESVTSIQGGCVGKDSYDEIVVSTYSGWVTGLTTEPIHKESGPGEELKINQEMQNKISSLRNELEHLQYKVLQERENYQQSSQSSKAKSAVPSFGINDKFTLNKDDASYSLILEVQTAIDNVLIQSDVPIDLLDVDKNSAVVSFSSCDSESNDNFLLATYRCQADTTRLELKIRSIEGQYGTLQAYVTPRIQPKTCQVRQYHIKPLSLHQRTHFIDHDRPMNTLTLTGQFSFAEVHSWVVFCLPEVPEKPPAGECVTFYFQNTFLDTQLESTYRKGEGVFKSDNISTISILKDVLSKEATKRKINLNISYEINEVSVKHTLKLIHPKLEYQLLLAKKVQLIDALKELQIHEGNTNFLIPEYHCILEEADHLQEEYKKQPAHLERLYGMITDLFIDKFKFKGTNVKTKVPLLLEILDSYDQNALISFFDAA
UniProt Q9BX63: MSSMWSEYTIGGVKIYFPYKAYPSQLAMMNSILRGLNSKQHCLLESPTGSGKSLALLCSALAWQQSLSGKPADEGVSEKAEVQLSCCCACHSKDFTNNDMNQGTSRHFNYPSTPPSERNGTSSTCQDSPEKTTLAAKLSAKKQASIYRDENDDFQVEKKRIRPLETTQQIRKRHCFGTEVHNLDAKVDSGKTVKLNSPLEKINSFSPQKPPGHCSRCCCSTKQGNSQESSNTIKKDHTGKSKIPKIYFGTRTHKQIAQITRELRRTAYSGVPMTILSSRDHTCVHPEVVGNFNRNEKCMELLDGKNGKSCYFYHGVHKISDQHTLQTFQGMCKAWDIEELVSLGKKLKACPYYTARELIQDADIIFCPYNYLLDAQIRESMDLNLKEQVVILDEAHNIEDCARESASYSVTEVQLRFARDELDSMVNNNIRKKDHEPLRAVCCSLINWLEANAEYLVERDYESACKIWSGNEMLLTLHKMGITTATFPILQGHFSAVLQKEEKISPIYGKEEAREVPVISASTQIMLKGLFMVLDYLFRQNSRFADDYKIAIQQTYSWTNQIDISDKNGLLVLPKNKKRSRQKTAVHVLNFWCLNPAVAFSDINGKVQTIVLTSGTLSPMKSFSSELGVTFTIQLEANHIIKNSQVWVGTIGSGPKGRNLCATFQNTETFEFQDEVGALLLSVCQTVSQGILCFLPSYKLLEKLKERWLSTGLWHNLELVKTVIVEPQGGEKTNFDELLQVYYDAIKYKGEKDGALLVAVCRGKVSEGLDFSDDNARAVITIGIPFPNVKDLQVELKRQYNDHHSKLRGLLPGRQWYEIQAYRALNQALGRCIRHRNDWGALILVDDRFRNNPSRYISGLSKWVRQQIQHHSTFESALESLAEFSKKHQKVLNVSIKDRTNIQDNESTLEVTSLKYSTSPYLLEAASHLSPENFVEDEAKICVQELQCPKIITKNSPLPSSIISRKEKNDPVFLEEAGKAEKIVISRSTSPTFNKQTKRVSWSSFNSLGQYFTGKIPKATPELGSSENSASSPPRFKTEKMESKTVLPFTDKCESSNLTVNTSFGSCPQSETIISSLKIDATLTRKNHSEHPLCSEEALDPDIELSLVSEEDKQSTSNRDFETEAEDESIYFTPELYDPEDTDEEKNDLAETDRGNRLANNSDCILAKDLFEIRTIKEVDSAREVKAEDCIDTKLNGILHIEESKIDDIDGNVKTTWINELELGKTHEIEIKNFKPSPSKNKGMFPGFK
UniProt Q9NP55: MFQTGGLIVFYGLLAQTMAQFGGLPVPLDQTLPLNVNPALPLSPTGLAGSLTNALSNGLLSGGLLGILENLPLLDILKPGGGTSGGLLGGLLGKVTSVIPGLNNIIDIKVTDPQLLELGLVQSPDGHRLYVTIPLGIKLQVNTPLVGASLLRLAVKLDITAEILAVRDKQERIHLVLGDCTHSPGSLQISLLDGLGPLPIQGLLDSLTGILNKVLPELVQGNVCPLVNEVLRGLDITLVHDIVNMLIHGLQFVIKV
UniProt Q6PGQ7, whole entry, looked up: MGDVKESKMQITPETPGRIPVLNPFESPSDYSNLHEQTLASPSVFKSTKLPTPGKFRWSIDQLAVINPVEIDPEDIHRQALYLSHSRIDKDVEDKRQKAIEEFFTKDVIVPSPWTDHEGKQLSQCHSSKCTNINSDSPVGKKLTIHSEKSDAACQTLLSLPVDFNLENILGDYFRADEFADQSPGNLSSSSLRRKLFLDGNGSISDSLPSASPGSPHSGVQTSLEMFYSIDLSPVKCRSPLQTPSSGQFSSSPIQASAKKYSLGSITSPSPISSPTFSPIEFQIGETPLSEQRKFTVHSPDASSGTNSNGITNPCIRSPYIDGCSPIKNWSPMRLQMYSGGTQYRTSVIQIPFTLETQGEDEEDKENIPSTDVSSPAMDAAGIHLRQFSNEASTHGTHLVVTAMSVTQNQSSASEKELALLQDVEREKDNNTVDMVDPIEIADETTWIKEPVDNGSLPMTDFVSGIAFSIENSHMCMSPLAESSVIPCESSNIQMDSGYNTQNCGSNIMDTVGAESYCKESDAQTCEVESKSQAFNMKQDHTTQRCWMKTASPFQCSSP

Experiments:
Experiment in all cases: log2 fold change, soluble protein after heating vs DMSO (PISA); higher = thermal stabilisation; K562 lysate, 10 uM; active = over 0.2 and 3.5 SD of the protein, either way, in both replicates (recomputed)
[1] = compound: CCCS(=O)(=O)Nc1ccc(F)c(C(=O)c2c[nH]c3ncc(Cl)cc23)c1F
Procedure, shortened: (§1)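 To prepare the extract, K562 pellets were dounce-homogenised in PBS pH 7.4 with 1 mM MgCl2, giving crude material at 1 mg/mL protein. This was treated with 10 μM compound for 30 min, then heated in aliquots for 3 min over 48°C-58°C before pooling and addition of NP-40 to 0.5% at 4°C. Centrifugation at 21,000xg for 90 min left soluble protein in the supernatant, which TMTpro 16plex LC-MS/MS quantified with equalised channel sums. Results are log-two fold changes in thermal stability compared with solvent controls, from duplicates.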

barasertib = compound: CCN(CCCOc1ccc2c(Nc3cc(CC(=O)Nc4cccc(F)c4)[nH]n3)ncnc2c1)CCOP(=O)(O)O [barasertib]
Procedure, shortened: as §1

[2] = compound: CC[C@@H]1C(=O)N(C)c2cnc(Nc3ccc(C(=O)NC4CCN(C)CC4)cc3OC)nc2N1C1CCCC1
Procedure, shortened: as §1

volasertib = compound: CC[C@@H]1C(=O)N(C)c2cnc(Nc3ccc(C(=O)N[C@H]4CC[C@H](N5CCN(CC6CC6)CC5)CC4)cc3OC)nc2N1C(C)C [volasertib]
Procedure, shortened: as §1

[3] = compound: CCn1c(C(=O)N(C2CC2)C2CC2)cc2c3c(ncn3C)c(Nc3cc(C)n(C)n3)nc21
Procedure, shortened: as §1

saracatinib = compound: CN1CCN(CCOc2cc(OC3CCOCC3)c3c(Nc4c(Cl)ccc5c4OCO5)ncnc3c2)CC1 [saracatinib]
Procedure, shortened: as §1

sotrastaurin = compound: CN1CCN(c2nc(C3=C(c4c[nH]c5ccccc45)C(=O)NC3=O)c3ccccc3n2)CC1 [sotrastaurin]
Procedure, shortened: as §1

Tubastatin A = compound: CN1CCc2c(c3ccccc3n2Cc2ccc(C(=O)NO)cc2)C1 [Tubastatin A]
Procedure, shortened: as §1

[4] = compound: CNC(=O)C1=CC=CC=C1NC2=NC(=NC=C2Cl)NC3=C(C=C(C=C3)N4CCOCC4)OC
Procedure, shortened: as §1

[5] = compound: CNc1nc(-c2ccc3c(N)n[nH]c3c2)cc(N2C[C@@H](C(=O)NC3CCCCC3)CC[C@H]2C)n1
Procedure, shortened: as §1

encorafenib = compound: COC(=O)N[C@@H](C)CNc1nccc(-c2cn(C(C)C)nc2-c2cc(Cl)cc(NS(C)(=O)=O)c2F)n1 [encorafenib]
Procedure, shortened: as §1

[6] = compound: COC(=O)[C@H](CCSC)NC(=O)C1=C(C=C(C=C1)NC[C@H](CS)N)C2=CC=CC=C2
Procedure, shortened: as §1

alisertib = compound: COc1cc(Nc2ncc3c(n2)-c2ccc(Cl)cc2C(c2c(F)cccc2OC)=NC3)ccc1C(=O)O [alisertib]
Procedure, shortened: as §1

[7] = compound: COc1cc2nc(-c3cc(F)ccc3O)nc(N[C@@H]3CNC[C@H]3C(C)(C)O)c2cc1OC
Procedure, shortened: as §1

gefitinib = compound: COc1cc2ncnc(Nc3ccc(F)c(Cl)c3)c2cc1OCCCN1CCOCC1 [gefitinib]
Procedure, shortened: as §1

vemurafenib = compound: CCCS(=O)(=O)Nc1ccc(F)c(C(=O)c2c[nH]c3ncc(-c4ccc(Cl)cc4)cc23)c1F [vemurafenib]
Procedure, shortened: as §1

[8] = compound: CCn1cc(-c2ccnc3[nH]c(-c4cccc(CN(C)C)c4)cc23)c(-c2ccc(NC(=O)N(C)C)cc2)n1
Procedure, shortened: as §1

[9] = compound: CN1CCC(CNc2ccc3ncc(-c4cccc(OC(F)(F)F)c4)n3n2)CC1
Procedure, shortened: as §1

alvocidib = compound: CN1CC[C@H](c2c(O)cc(O)c3c(=O)cc(-c4ccccc4Cl)oc23)[C@H](O)C1 [alvocidib]
Procedure, shortened: as §1

defactinib = compound: CNC(=O)c1ccc(Nc2ncc(C(F)(F)F)c(NCc3nccnc3N(C)S(C)(=O)=O)n2)cc1 [defactinib]
Procedure, shortened: as §1

Measured: log2 fold change

BDH2 (UniProt Q9BUT1)
inactive: [1] 0.02 | barasertib 0.016 | [2] 0.057 | volasertib -0.039 | [3] -0.087 | saracatinib -0.009 | sotrastaurin -0.04 | Tubastatin A 0.065 | [4] 0 | [5] -0.249 | encorafenib -0.047 | [6] 0.068 | alisertib 0.083 | [7] -0.047 | gefitinib 0.074

BRF1 (UniProt Q92994)
inactive: vemurafenib 0.061 | barasertib 0.035 | [2] 0.022 | [3] -0.051 | [8] -0.071 | [9] -0.038 | saracatinib -0.04 | sotrastaurin -0.013 | alvocidib 0.047 | Tubastatin A -0.274 | [4] 0.081 | defactinib 0.026 | [5] -0.001 | encorafenib 0.04 | [6] 0.136 | alisertib 0.04 | gefitinib 0.278

BRMS1 (UniProt Q9HCU9)
inactive: vemurafenib 0.036 | [1] -0.02 | [2] 0.023 | volasertib 0.027 | [3] -0.079 | saracatinib -0.045 | sotrastaurin -0.149 | Tubastatin A -0.091 | [4] 0.009 | defactinib -0.08 | [5] -0.029 | encorafenib -0.051 | [6] -0.085 | alisertib 0.077 | [7] -0.001 | gefitinib -0.01

BAP18 isoform 3 (UniProt Q8IXM2)
inactive: vemurafenib -0.075 | [1] -0.012 | [2] 0.227 | volasertib 0.135 | [8] 0.1 | [9] 0.109 | alvocidib 0.061 | [4] 0.113 | defactinib -0.103 | encorafenib 0.043 | [6] 0.096 | alisertib 0.226 | [7] -0.095 | gefitinib 0.051

BCAS1 isoform 2 (UniProt O75363)
inactive: [1] 0.052 | barasertib 0.022 | [2] -0.04 | volasertib 0.204 | [3] 0.003 | [8] 0.048 | [9] 0.015 | sotrastaurin 0.02 | alvocidib -0.014 | Tubastatin A -0.167 | encorafenib 0.18 | [6] 0.149 | alisertib -0.037 | [7] 0.09 | gefitinib 0.004

BBS7 (UniProt Q8IWZ6)
inactive: vemurafenib 0.375 | [2] -0.082 | [3] 0.026 | [8] -0.255 | [9] 0.067 | saracatinib 0.217 | sotrastaurin 0.044 | alvocidib 0.027 | Tubastatin A -0.123 | [4] -0.028 | defactinib -0.212 | [5] -0.042 | encorafenib 0.024 | [6] 0.091 | alisertib 0.123 | gefitinib -0.016

BNIP2 (UniProt H7C096)
inactive: [1] 0.082 | barasertib 0.022 | [2] -0.072 | volasertib 0.021 | [8] -0.037 | [9] -0.027 | alvocidib -0.061 | encorafenib 0.11 | [6] 0.023 | [7] -0.028

BRIP1 (UniProt Q9BX63)
inactive: vemurafenib -0.131 | [1] -0.016 | [2] -0.225 | volasertib 0.031 | [3] -0.066 | [8] -0.013 | [9] 0.024 | saracatinib -0.115 | sotrastaurin 0.059 | alvocidib -0.029 | Tubastatin A -0.028 | [4] 0.03 | defactinib 0.063 | [5] -0.121 | encorafenib 0.02 | [6] 0.046 | alisertib 0.072 | [7] 0.122 | gefitinib -0.16

2 successive entries from above:
BNIP2 (UniProt H7C096)
inactive: [1] 0.082 | barasertib 0.022 | [2] -0.072 | volasertib 0.021 | [8] -0.037 | [9] -0.027 | alvocidib -0.061 | encorafenib 0.11 | [6] 0.023 | [7] -0.028

BRIP1 (UniProt Q9BX63)
inactive: vemurafenib -0.131 | [1] -0.016 | [2] -0.225 | volasertib 0.031 | [3] -0.066 | [8] -0.013 | [9] 0.024 | saracatinib -0.115 | sotrastaurin 0.059 | alvocidib -0.029 | Tubastatin A -0.028 | [4] 0.03 | defactinib 0.063 | [5] -0.121 | encorafenib 0.02 | [6] 0.046 | alisertib 0.072 | [7] 0.122 | gefitinib -0.16

Next results follow:

BPIFA1 (UniProt Q9NP55)
inactive: vemurafenib 0.066 | [2] -0.267 | [3] 0.149 | [8] 0.54 | [9] -0.597 | saracatinib -0.44 | alvocidib -0.135 | Tubastatin A 0.062 | [4] 0.781 | defactinib 0.024 | [5] -0.23 | encorafenib -0.139 | [6] 0.093 | alisertib 0.022 | gefitinib -0.018

BRAF, A0A2R8Y8E0
inactive: vemurafenib 1.34 | [2] -0.287 | defactinib -0.029 | encorafenib 1.3 | [6] 0.076

BCL7C (UniProt Q8WUZ0)
inactive: [1] 0.042 | barasertib 0.063 | [2] 0.098 | volasertib 0.021 | [3] 0 | [8] -0.063 | [9] 0.024 | saracatinib 0.041 | sotrastaurin -0.013 | alvocidib -0.029 | Tubastatin A 0.112 | [4] 0.103 | [5] 0.064 | encorafenib 0.132 | [6] 0.128 | [7] 0.087

BORA (UniProt Q6PGQ7)
inactive: vemurafenib -0.056 | barasertib -0.031 | [2] 0.083 | [3] -0.034 | [8] 0.228 | [9] 0.034 | saracatinib 0.066 | sotrastaurin -0.038 | alvocidib -0.042 | Tubastatin A 0.01 | [4] 0.037 | defactinib -0.056 | [5] -0.074 | encorafenib -0.042 | [6] -0.005 | alisertib 0.061 | gefitinib 0.021
